For two substances, binding results are on record in paper PMC8620773.

By UniProt entry, the sequences of proteins in these tests, tags left out. Where a name states a change or a piece, a line headed by the entry shows the natural chain unless it says otherwise.
UniProt P28066, whole entry: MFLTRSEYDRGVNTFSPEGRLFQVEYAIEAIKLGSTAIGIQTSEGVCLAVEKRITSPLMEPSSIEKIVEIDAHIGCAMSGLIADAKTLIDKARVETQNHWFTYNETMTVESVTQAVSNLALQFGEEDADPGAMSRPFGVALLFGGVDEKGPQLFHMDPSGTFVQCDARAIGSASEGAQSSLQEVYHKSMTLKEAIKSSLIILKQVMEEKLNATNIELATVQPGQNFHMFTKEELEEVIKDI

These are yes or no findings as the source states them, for the method shown. Binding seen in cells or lysates may run through a third protein. Some binding calls cover weakened binding; strength is not graded here.

For this assay, the target named is α5 (S16A)-TBHA (UniProt P28066). The assay is described as follows: pull-down; High Capacity Streptavidin Agarose captures the biotinylated TBHA-tagged bait from lysates of stably expressing 293T cells (TBSN buffer: 50 mM Tris pH 7.5, 125 mM NaCl, 0.5% NP-40, 1 mM ATP, 5 mM MgCl2), 4 °C; Western blot; cells with or without nocodazole (100 ng/mL, 16 h). (In general: In western blotting, separated proteins are transferred to a membrane and probed.)

Regarding “endogenous α5 (from UniProt P28066-1 1-241)”, the binding result is on record as “binds”.

Take “HA-PLK1 (from UniProt P53350 1-603) (enzyme)”: the binding result was “binds”.
